From paper PMC7396582
These are yes or no findings as the source states them, for the method shown. Binding seen in cells or lysates may run through a third protein. Here binding means that the protein was enriched with, or labelled near, the bait; the list need not be complete.

By UniProt entry, the sequences of proteins in these tests, tags left out. Where a name states a change or a piece, a line headed by the entry shows the natural chain unless it says otherwise. Chains listed by the source or under a name are the forms on record and can include a tag or linker. Residues count along the entry.
Atp6v1a (D4A133, form named): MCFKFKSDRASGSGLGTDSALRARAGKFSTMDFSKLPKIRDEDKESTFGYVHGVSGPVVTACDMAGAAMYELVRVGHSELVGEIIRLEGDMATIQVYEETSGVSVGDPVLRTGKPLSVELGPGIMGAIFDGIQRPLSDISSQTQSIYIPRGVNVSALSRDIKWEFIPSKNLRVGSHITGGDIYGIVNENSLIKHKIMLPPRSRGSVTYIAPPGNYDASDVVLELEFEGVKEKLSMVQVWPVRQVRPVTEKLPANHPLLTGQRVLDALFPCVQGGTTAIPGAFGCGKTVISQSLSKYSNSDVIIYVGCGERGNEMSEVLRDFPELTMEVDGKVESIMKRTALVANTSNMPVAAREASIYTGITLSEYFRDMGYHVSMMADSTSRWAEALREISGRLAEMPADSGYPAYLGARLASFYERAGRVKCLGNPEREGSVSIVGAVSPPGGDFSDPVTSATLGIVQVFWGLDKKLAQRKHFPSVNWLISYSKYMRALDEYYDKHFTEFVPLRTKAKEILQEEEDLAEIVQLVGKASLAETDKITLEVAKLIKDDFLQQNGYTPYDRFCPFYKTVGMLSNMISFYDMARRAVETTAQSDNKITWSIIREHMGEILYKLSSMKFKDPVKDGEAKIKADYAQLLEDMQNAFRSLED
UniProt Q5FVI6: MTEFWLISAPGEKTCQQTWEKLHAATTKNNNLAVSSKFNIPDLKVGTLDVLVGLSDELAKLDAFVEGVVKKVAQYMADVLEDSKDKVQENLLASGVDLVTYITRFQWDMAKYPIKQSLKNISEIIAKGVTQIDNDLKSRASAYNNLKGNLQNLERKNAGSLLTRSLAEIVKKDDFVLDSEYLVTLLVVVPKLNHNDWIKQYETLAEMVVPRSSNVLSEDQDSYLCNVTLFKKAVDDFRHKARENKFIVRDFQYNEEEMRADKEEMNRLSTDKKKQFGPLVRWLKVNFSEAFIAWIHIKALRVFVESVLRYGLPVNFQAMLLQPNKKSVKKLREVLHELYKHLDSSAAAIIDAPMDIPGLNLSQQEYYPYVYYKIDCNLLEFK
UniProt Q62717: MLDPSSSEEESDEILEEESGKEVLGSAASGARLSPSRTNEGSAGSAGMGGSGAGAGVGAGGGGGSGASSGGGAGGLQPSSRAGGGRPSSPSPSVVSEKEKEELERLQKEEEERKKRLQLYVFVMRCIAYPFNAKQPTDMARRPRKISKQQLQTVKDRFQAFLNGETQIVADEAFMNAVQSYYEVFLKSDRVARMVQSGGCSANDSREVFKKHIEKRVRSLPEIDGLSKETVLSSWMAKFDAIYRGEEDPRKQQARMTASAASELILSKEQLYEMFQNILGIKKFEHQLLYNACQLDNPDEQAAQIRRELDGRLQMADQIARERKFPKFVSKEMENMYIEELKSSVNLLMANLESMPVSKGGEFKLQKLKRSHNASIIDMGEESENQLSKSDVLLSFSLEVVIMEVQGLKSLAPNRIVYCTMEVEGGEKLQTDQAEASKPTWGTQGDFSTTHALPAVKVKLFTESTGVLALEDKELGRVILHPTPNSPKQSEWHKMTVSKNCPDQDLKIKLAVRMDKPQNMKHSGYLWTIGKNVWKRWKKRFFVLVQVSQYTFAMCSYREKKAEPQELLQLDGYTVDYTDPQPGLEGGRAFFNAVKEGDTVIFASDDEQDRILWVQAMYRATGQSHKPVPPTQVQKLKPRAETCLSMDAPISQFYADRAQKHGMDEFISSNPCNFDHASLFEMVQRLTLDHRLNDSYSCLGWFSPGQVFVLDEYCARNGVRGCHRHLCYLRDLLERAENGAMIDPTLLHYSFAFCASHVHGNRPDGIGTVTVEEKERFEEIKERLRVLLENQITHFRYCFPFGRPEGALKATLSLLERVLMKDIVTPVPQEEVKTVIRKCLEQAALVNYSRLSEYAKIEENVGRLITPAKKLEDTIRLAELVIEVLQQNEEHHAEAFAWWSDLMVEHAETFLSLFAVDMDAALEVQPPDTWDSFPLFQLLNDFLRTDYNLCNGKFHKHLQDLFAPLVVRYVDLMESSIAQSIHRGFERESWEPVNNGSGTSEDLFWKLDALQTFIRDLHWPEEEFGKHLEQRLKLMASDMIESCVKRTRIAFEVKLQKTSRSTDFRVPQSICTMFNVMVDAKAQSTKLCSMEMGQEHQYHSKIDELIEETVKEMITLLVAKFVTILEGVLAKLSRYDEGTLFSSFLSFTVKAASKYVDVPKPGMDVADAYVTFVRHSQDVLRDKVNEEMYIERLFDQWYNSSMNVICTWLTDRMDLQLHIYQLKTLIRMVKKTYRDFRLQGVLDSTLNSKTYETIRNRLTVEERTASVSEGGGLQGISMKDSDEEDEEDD
UniProt P10111: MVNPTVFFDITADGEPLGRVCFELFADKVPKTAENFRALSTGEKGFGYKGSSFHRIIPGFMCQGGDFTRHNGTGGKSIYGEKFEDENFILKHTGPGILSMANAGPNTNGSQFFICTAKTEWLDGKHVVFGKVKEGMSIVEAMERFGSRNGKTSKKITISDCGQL
UniProt P60881: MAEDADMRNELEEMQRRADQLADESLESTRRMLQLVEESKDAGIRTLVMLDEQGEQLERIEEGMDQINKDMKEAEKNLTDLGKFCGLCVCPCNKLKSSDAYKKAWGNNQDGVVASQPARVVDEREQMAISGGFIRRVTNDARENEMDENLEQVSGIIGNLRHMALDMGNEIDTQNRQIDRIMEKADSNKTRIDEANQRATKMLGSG
UniProt P61765: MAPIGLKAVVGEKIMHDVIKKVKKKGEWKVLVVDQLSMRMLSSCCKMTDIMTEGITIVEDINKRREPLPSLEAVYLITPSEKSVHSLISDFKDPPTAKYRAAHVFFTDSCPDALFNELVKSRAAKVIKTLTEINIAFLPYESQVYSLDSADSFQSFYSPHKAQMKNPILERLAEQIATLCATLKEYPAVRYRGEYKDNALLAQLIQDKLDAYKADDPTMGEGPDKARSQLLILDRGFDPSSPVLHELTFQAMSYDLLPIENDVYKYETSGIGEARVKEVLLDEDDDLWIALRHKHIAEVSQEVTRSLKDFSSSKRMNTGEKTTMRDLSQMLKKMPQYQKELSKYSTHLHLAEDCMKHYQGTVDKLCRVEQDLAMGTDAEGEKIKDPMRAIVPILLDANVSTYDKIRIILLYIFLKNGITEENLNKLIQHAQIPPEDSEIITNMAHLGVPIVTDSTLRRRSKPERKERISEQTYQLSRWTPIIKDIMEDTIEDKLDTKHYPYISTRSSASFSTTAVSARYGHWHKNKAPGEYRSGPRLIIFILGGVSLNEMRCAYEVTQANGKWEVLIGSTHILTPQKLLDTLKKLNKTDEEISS
UniProt Q62910: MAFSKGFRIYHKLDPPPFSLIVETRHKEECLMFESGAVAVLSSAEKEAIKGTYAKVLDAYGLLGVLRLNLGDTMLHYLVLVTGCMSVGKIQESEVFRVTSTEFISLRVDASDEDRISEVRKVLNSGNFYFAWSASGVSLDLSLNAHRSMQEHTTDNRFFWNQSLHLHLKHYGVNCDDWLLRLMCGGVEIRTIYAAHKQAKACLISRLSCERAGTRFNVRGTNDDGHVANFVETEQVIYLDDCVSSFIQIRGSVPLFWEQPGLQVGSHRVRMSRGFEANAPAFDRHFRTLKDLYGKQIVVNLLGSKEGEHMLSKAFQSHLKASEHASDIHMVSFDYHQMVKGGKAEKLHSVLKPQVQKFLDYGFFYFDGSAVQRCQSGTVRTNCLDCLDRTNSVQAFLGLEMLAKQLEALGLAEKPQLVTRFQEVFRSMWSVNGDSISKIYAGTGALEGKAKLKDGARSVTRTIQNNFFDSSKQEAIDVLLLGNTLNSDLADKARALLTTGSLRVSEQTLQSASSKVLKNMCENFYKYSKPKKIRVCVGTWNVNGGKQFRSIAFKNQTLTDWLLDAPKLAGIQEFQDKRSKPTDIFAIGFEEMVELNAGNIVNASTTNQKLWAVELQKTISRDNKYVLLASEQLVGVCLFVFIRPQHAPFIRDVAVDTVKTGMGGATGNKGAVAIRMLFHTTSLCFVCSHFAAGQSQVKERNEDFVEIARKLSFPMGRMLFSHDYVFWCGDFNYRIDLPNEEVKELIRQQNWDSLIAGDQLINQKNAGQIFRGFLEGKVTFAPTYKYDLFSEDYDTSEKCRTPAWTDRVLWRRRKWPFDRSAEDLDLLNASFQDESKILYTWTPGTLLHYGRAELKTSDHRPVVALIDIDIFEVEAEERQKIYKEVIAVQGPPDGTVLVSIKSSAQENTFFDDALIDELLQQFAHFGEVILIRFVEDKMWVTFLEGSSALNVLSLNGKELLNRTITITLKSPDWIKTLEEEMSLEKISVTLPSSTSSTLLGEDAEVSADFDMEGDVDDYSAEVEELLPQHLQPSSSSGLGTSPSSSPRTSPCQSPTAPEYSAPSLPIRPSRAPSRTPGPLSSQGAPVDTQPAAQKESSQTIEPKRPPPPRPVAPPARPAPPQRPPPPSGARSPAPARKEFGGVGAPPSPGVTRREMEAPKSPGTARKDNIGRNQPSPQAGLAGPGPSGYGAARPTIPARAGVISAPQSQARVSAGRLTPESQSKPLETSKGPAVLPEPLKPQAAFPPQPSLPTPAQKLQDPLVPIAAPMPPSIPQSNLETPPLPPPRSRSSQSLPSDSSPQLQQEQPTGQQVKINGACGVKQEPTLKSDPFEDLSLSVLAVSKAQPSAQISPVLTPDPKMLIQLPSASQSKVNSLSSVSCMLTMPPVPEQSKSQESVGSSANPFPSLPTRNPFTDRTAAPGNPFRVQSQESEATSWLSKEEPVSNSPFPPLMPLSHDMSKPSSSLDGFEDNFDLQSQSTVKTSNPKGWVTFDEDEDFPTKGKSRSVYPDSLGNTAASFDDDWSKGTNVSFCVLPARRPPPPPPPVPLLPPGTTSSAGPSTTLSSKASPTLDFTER
UniProt P21707: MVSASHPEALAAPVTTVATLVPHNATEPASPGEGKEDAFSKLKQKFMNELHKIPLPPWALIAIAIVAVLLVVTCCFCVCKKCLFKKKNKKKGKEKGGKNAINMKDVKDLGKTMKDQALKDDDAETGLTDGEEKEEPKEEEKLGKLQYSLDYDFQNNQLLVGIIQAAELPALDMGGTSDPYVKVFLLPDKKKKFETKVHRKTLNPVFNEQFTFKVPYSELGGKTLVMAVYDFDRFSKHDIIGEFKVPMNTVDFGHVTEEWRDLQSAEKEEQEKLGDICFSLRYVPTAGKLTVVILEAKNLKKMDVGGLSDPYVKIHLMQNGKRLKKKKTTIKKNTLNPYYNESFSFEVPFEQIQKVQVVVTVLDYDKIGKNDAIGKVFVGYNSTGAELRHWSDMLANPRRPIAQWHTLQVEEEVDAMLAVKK
UniProt P23385, residues 19-1199: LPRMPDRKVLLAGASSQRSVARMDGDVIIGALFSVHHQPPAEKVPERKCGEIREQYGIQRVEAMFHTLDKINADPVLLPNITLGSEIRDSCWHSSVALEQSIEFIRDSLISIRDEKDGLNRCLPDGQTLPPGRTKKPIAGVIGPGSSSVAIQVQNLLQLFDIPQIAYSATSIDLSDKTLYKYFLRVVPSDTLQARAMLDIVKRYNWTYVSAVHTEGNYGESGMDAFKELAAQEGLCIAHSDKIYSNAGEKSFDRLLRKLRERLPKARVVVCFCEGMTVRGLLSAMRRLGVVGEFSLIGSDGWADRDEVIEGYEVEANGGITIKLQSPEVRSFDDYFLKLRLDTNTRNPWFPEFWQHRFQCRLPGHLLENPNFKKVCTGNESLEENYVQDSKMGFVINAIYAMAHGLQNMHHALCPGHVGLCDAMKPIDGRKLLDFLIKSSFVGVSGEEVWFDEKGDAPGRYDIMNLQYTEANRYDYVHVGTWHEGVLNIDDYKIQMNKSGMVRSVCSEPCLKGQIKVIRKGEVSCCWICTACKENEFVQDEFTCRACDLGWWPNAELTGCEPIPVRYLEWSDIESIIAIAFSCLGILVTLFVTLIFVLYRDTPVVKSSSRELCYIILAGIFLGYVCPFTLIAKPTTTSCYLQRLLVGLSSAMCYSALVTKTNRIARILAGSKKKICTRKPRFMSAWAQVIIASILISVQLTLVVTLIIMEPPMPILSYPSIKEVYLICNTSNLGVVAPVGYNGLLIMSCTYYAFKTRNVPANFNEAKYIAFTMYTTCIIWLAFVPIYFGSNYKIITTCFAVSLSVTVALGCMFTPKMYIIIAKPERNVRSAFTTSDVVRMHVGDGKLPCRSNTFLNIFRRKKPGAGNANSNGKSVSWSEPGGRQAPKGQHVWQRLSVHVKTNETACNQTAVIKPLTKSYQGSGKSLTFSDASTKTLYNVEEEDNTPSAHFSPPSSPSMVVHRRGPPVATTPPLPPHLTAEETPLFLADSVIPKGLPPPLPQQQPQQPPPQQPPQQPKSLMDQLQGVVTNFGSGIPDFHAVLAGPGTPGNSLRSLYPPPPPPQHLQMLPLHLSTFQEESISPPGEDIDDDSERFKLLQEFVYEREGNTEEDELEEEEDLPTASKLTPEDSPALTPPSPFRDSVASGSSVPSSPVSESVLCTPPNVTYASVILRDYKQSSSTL

biological target: T1, M6a-loops (rat) (UniProt Q812E9); experiment: affinity purification with mass spectrometry; M6a-loops (10-25 ug, from concentrated supernatant) held by anti-SV5-mAb cross-linked to protein A magnetic beads (1 h, room temperature); incubated with clarified pooled rat hippocampi extract (P14, P21, P30; 1% Triton X-100 in PBS; 200-350 ug) overnight at 4 C; washed three times with PBS-T; eluted in SDS buffer with DTT; TMT/MS; mock: M6a-loops with protein A beads without anti-SV5; three co-IPs with two replicates each
T1 sequence (chain, biotin on the BAP (sec-BirA from the pBig plasmid)): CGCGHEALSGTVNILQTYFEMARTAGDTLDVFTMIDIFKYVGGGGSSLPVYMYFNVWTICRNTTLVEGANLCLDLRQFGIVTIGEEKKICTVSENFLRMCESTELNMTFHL

Anxa5 (from UniProt P14668 1-319) was tested. Which binding did it give?
Its binding is “binds”.

How did the binding turn out when App (from UniProt P08592 18-770) was run?
The binding was “binds”.

For Aqp4 (from UniProt P47863 1-323), which binding is on record?
Its binding is “binds”.

With Atp1a2 (from UniProt P06686 1-1020) as the substance, how does the binding read?
Its binding is “binds”.

Which binding does the source give for Atp1a3 (from UniProt P06687 1-1013) here?
The binding was “binds”.

How did the binding turn out when Atp1b1 (from UniProt P07340 1-304) was run?
Its binding is “binds”.

Atp1b2 (from UniProt P13638 1-290) was tested. Which binding did it give?
The binding was “binds”.

With Atp2b2 (from UniProt P11506 1-1243) as the substance, how does the binding read?
The binding was “binds”.

With Atp2b4 (from UniProt Q64542 1-1203) as the substance, how does the binding read?
The binding was “binds”.

Which binding does the source give for Atp6v0a1 (from UniProt P25286 1-838) here?
The binding was “binds”.

Which binding does the source give for Atp6v1a (from UniProt D4A133 1-647) here?
Its binding is “binds”.

With Atp6v1b2 (from UniProt P62815 1-511) as the substance, how does the binding read?
Its binding is “binds”.

Atp6v1c1 (from UniProt Q5FVI6 1-382) was tested. Which binding did it give?
Its binding is “binds”.

For Atp6v1e1 (from UniProt Q6PCU2 1-226), which binding is on record?
The binding was “binds”.

How did the binding turn out when “Atp6v1g2 (rat (endogenous in hippocampus))” was run?
Its binding is “binds”.

“Atp6v1h (rat (endogenous in hippocampus))” was tested. Which binding did it give?
Its binding is “binds”.

Bcan (from UniProt P55068 23-883) was tested. Which binding did it give?
Its binding is “binds”.

How did the binding turn out when Bsn (from UniProt O88778 1-3938) was run?
Its binding is “binds”.

Cadps (from UniProt Q62717 1-1289) was tested. Which binding did it give?
Its binding is “binds”.

For Cpne6 (rat (endogenous in hippocampus)), which binding is on record?
Its binding is “binds”.

How did the binding turn out when Dpp6 (from UniProt P46101 1-859) was run?
Its binding is “binds”.

How did the binding turn out when Dpysl3 (from UniProt Q62952 1-570) was run?
The binding was “binds”.

Which binding does the source give for Eno2 (from UniProt P07323 1-434) here?
The binding was “binds”.

Epb41 (rat (endogenous in hippocampus)) was tested. Which binding did it give?
Its binding is “binds”.

For “Epb41l2 (rat (endogenous in hippocampus))”, which binding is on record?
Its binding is “binds”.

Which binding does the source give for Epb41l3 (from UniProt A3E0T0 1-870) here?
The binding was “binds”.

How did the binding turn out when Gja1 (from UniProt P08050 1-382) was run?
Its binding is “binds”.

With Lrp1 (from UniProt G3V928 20-4545) as the substance, how does the binding read?
Its binding is “binds”.

Ncan (from UniProt P55067 23-1257) was tested. Which binding did it give?
The binding was “binds”.

For Nptn (from UniProt P97546 29-393), which binding is on record?
The binding was “binds”.

For Nrxn3 (from UniProt Q07310 28-1578), which binding is on record?
The binding was “binds”.

Omg (rat (endogenous in hippocampus)) was tested. Which binding did it give?
The binding was “binds”.

How did the binding turn out when Ppia (from UniProt P10111 1-164) was run?
The binding was “binds”.

How did the binding turn out when Scn2a (from UniProt P04775 1-2005) was run?
The binding was “binds”.

How did the binding turn out when Slc3a2 (from UniProt Q794F9 1-527) was run?
Its binding is “binds”.

Which binding does the source give for Snap25 (from UniProt P60881 1-206) here?
The binding was “binds”.

Stxbp1 (from UniProt P61765 1-594) was tested. Which binding did it give?
Its binding is “binds”.

Which binding does the source give for Sv2a (from UniProt Q02563 1-742) here?
Its binding is “binds”.

For Syn2 (from UniProt Q63537 1-586), which binding is on record?
Its binding is “binds”.

With Synj1 (from UniProt Q62910 1-1574) as the substance, how does the binding read?
The binding was “binds”.

With Syt1 (from UniProt P21707 1-421) as the substance, how does the binding read?
The binding was “binds”.

Which binding does the source give for Tnc (rat (endogenous in hippocampus)) here?
The binding was “binds”.

Ttyh3 (rat (endogenous in hippocampus)) was tested. Which binding did it give?
The binding was “binds”.

Which binding does the source give for Vdac1 (from UniProt Q9Z2L0 1-283) here?
Its binding is “binds”.

Which binding does the source give for “glutamate ionotropic receptor, GRIN1 (from UniProt P35439 19-938)” here?
Its binding is “binds”.

Which binding does the source give for “metabotropic glutamate receptor 1 (from UniProt P23385 19-1199)” here?
Its binding is “binds”.

With “neural cell adhesion molecule 1 (from UniProt P13596 20-858)” as the substance, how does the binding read?
Its binding is “binds”.

Which binding does the source give for piccolo (from UniProt Q9JKS6 1-5085) here?
The binding was “binds”.
